Results of single-concentration screens

Sequences of proteins named here, by UniProt entry; tags and fusion partners are left off. Residues count along the entry.
UniProt P9WNZ1, whole entry: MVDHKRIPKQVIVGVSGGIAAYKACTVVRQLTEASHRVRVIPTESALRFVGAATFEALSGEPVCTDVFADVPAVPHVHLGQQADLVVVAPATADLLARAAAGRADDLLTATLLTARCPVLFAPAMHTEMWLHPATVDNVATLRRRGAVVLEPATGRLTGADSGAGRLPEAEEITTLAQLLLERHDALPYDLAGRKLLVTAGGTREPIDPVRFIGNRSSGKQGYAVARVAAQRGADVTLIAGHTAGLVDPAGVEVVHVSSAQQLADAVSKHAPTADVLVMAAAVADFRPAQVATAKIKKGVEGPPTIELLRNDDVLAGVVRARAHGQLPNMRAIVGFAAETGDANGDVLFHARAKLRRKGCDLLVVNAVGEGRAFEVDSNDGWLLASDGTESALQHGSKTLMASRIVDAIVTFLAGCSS
UniProt I6X8D2, whole entry: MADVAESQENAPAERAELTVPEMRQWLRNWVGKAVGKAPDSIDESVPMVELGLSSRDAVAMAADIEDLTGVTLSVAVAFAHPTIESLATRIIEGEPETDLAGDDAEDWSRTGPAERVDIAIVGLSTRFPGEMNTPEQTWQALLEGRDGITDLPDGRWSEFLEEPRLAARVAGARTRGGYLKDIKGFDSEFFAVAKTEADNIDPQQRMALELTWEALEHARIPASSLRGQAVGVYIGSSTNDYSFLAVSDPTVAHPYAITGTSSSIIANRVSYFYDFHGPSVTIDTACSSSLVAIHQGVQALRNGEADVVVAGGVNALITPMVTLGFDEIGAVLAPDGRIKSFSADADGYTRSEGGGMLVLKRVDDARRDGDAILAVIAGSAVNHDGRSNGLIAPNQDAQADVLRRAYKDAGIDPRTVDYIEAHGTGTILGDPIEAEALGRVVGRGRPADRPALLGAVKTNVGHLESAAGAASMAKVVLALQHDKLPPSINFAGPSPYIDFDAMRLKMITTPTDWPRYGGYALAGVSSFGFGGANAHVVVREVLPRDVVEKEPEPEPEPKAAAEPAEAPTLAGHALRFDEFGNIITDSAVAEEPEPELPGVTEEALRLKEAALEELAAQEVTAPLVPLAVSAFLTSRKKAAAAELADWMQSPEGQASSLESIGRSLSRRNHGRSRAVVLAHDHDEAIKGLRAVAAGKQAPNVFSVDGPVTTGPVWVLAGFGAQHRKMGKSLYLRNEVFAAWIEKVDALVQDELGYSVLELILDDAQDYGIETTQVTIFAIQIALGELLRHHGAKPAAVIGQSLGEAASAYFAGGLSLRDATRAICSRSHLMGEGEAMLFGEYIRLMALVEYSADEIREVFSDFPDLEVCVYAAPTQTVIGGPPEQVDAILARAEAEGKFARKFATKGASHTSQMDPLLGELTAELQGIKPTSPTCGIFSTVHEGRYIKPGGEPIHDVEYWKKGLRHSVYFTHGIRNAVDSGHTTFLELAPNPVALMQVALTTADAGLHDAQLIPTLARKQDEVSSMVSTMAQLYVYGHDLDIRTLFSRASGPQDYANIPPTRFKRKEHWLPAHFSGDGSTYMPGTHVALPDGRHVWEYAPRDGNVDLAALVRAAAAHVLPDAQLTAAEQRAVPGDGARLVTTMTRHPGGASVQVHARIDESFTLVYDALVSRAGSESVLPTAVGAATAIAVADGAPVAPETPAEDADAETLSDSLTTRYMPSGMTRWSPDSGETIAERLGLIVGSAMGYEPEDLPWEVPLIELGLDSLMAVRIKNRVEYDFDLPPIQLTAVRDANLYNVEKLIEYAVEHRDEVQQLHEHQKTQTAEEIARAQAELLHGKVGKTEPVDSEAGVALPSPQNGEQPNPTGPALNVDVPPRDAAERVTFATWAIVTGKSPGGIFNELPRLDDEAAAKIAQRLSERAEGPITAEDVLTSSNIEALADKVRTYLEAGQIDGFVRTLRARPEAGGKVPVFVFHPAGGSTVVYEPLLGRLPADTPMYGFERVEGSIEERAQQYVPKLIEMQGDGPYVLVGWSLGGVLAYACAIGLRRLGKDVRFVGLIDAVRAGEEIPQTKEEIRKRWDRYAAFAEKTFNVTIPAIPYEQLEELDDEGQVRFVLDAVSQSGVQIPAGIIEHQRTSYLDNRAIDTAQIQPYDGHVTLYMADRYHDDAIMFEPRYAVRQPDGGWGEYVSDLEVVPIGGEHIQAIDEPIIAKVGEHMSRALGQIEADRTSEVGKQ
UniProt P9WFT3, whole entry: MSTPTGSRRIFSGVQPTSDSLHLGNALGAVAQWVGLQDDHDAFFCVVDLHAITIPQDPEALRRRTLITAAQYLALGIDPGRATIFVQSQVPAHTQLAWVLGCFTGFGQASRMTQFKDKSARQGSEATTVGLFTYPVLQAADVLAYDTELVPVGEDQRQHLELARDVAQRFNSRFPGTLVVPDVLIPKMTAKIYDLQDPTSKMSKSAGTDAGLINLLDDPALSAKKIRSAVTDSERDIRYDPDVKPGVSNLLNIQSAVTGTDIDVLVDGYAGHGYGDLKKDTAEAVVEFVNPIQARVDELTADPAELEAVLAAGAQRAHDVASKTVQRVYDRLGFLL
UniProt A4I591, 1-473: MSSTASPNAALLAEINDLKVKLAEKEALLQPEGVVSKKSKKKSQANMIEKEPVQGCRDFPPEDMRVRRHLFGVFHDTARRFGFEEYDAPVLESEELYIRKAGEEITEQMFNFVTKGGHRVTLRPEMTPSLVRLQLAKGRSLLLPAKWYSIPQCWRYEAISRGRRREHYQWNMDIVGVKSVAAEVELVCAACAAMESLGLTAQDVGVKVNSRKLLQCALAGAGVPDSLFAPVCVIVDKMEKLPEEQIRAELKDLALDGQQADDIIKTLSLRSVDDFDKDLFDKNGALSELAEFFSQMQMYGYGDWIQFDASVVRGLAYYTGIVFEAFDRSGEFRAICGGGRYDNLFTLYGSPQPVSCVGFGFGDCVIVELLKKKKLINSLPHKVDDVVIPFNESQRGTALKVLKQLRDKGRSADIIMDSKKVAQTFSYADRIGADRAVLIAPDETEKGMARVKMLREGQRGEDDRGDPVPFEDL

Source: ChEMBL document CHEMBL3988442, “University of Dundee, Small-Polar-MMV Screening Library” (2021).

CoaBC: 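Enzyme assay of CoaBC with a phosphate dye (Biomol Green) read at 650 nm. Target: Coenzyme A biosynthesis protein CoaBC, Mycobacterium tuberculosis (UniProt P9WNZ1). Concentration: 30 µM. Higher reads as stronger inhibition, judged from the few compounds that gave an IC50. Most strong results did not repeat in a second test. About 67,000 compounds were tested under these conditions; 0.06% (about 40) showed 50% or more at least once.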
Pks13 thioesterase: 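Polyketide synthase Pks13, Mycobacterium tuberculosis (UniProt I6X8D2). Enzyme assay of the thioesterase domain of polyketide synthase 13; the read-out is not stated. Compounds at 30 µM. The record gives no direction; the compounds picked for IC50 retests had high values, so higher reads as stronger inhibition. Size under these conditions: about 67,000 compounds, about 300 of them at 50% or above in at least one test.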
MtTrpRS: 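Tryptophan-tRNA ligase, Mycobacterium tuberculosis (UniProt P9WFT3). Enzyme assay of tryptophanyl-tRNA synthetase; the read-out is not stated. Concentration: 10 µM. Higher most likely means stronger inhibition; the record gives no direction and few retests gave an IC50. Size under these conditions: about 65,000 compounds, about 64 of them at 50% or above in at least one test.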
LiHisRS: 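Enzyme assay of histidyl-tRNA synthetase; the read-out is not stated. Target: Histidine-tRNA ligase, Leishmania infantum (UniProt A4I591). Compounds at 30 µM. Higher reads as stronger inhibition (inferred: compounds with an IC50 in retests scored well above the rest). The assay is labelled LdHisRS but filed under L. infantum. Size under these conditions: about 69,000 compounds, about 410 of them at 50% or above in at least one test.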

Values are the deposited “Percent Effect”, in %.
How 0% and 100% were set is not recorded. Most values in the screen are low, and negative values occur.
Compounds were drawn at random from those tested, without regard to their results.

CO[C@H]1CN(CC2CC2)[C@@H]2CCCO[C@H]12 gave CoaBC: 1.856%; Pks13 thioesterase: -11.97%; LiHisRS: 7.921%.
CC(=O)N1CCO[C@@H]2CN(S(=O)(=O)c3ccc(C)cc3)CC[C@@H]2C1 gave CoaBC: 0.2439%; Pks13 thioesterase: 3.984%; LiHisRS: 50.94%.
Cc1[nH]c2ccccc2c1-c1ccnc(NC[C@H](O)CO)n1 gave CoaBC: -1.173%; Pks13 thioesterase: 5.521%; MtTrpRS: 0.9291%; LiHisRS: -1.351%.
Cc1ccc(NC2CCN(C(=O)c3cnc(C)s3)CC2)nn1 gave CoaBC: 4.563%; Pks13 thioesterase: -2.427%; MtTrpRS: 0.08446%; LiHisRS: 17.57%.
O=C(c1ccc2c(c1)COC2)N1CCCN(Cc2cscn2)CC1 gave CoaBC: -3.485%; Pks13 thioesterase: -6.889%; MtTrpRS: 14.14%; LiHisRS: 5.128%.
COCCN(Cc1ccccc1Cl)c1nc(CCN)nc2ccccc12 gave CoaBC: -4.132%; Pks13 thioesterase: -20.42%; MtTrpRS: -2.79%; LiHisRS: 44.9%.
CC1CC(=O)c2cnc3nc(N4CCOCC4)[nH]c(=O)c3c2C1 (stereo not drawn) gave CoaBC: -6.604%; Pks13 thioesterase: 5.362%; MtTrpRS: -1.54%; LiHisRS: 7.692%.
CCNS(=O)(=O)c1cccc(CSC)c1 gave CoaBC: 7.692%; Pks13 thioesterase: -77.18%; MtTrpRS: 6.882%; LiHisRS: 12.39%.
O=C1CC2(CCN(Cc3ccsc3)C2)CN1c1ccc2c(c1)OCO2 (stereo not drawn) gave CoaBC: 0.4202%; Pks13 thioesterase: -6.601%; MtTrpRS: -0.1744%; LiHisRS: -1.818%.
CCN(C)C(=O)c1cnc(-c2noc3cc(N4CCCCC4)ccc23)s1 gave Pks13 thioesterase: 10.7%; MtTrpRS: 8.818%; LiHisRS: -3.419%.
CNS(=O)(=O)c1ccc(C(=O)N2CCCC2Cc2ccccc2)o1 (stereo not drawn) gave CoaBC: -1.169%; Pks13 thioesterase: -25.9%; MtTrpRS: -0.8772%; LiHisRS: 16.67%.
C[C@@H](CO)Nc1cc(-c2cn[nH]c2)ncn1 gave CoaBC: -0.1205%; Pks13 thioesterase: 4.078%; LiHisRS: 14.29%.
COc1cc(C)cc(C(C(=O)O)N(C)Cc2cnn(C)c2)c1OC (stereo not drawn) gave CoaBC: -0.8783%; Pks13 thioesterase: 19.52%; MtTrpRS: -3.233%; LiHisRS: 11.86%.
Cc1noc(C(C)C)c1C(=O)NCC(c1cccs1)N(C)C (stereo not drawn) gave CoaBC: 6.579%; Pks13 thioesterase: -1.386%; MtTrpRS: -2.941%; LiHisRS: 10.71%.
Cc1cccc(Oc2nccnc2C2CCN(C(=O)C(C)(C)N)CC2)c1 gave CoaBC: 1.699%; Pks13 thioesterase: -2.497%; LiHisRS: -27.54%.
COc1cccnc1NC(=O)COc1ccc(F)cc1F gave CoaBC: 4.808%; Pks13 thioesterase: -43.1%; MtTrpRS: -4.145%; LiHisRS: 28.77%.
CCN(Cc1ccc2c(c1)OCCO2)C(=O)NCc1cc[nH]n1 gave CoaBC: 4.359%; Pks13 thioesterase: -17.8%; MtTrpRS: 0.7037%; LiHisRS: 10.67%.
CC(C)c1cc(NC(=O)CN2CCC(N3CCNC3=O)CC2)on1 gave CoaBC: 2.108%; Pks13 thioesterase: 0.2595%; MtTrpRS: 3.888%; LiHisRS: 9.375%.
O=C(Nc1cccnc1N1CCSCC1)c1ccc2c(c1)OCO2 gave CoaBC: -2.427%; Pks13 thioesterase: -22.45%; MtTrpRS: -5.02%; LiHisRS: 45.78%.
Cc1ccc(CN2CCC3(CCC3NC(=O)c3ccn(C)c3)CC2)s1 (stereo not drawn) gave CoaBC: 1.777%; Pks13 thioesterase: -5.898%; MtTrpRS: 3.121%; LiHisRS: 30.85%.
O=C1N(c2ccsc2)CCC12CCCN(CC1CC1)C2 (stereo not drawn) gave CoaBC: -0.3708%; Pks13 thioesterase: -0.7003%; MtTrpRS: -1.592%; LiHisRS: 19%.
O=C1CCC2(CCN(Cc3ccc(F)cc3)CC2)N1Cc1ccccc1 gave CoaBC: 6.53%; Pks13 thioesterase: -8.168%; MtTrpRS: 2.214%; LiHisRS: 14.63%.
O=S(=O)(Nc1ccccn1)c1cc(Cl)cc2c1OCC2 gave CoaBC: -3.64%; Pks13 thioesterase: -9.896%; MtTrpRS: -3.665%; LiHisRS: 8.621%.
COCC(=O)NC(C)Cc1cccc(Br)c1 (stereo not drawn) gave CoaBC: 3.989%; Pks13 thioesterase: -35.32%; MtTrpRS: -0.1572%; LiHisRS: 10.4%.
Cc1ccc(CC(=O)N2CCOC(c3nc(C)n[nH]3)C2)cn1 (stereo not drawn) gave CoaBC: 8.439%; Pks13 thioesterase: -5.88%; MtTrpRS: 5.498%; LiHisRS: 18.27%.

Some entries from above, unchanged:

compound	CoaBC	Pks13 thioesterase	MtTrpRS	LiHisRS
CCNS(=O)(=O)c1cccc(CSC)c1	7.692%	-77.18%	6.882%	12.39%
O=C1CC2(CCN(Cc3ccsc3)C2)CN1c1ccc2c(c1)OCO2 (stereo not drawn)	0.4202%	-6.601%	-0.1744%	-1.818%